Reference: PubChem BioAssay AID504444 (National Center for Advancing Translational Sciences (NCATS), 2011)
The campaign covered roughly 360,000 compounds. About 7,500 (2.1%) were called active. The inconclusive results got no clear call from the source; some entries with a clear call stand among them for comparison. Calls come from the whole dose curve; as a rule, active = well fitted inhibition curve with a large enough effect; inconclusive = small, poorly fitted or top-dose-only effect, or effect the other way; inactive = flat fitted curve, though single readings scatter. Potencies of inconclusive entries are doubtful fits and often do not repeat.

Test: Nrf2 qHTS screen for inhibitors; note: nearly all actives have a fitted effect of over 60% in size
Details: A549 ARE-Fluc reporter, luciferase luminescence, 18-24 h; series mostly up to 46 µM
In short: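 Nrf2 function is reported as luminescence of an ARE-controlled luciferase in A549 cells. Compounds were tested at several concentrations, and a CellTiter-Fluor read on the same wells flagged cytotoxicity.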
Potency is the fitted concentration of half-maximal effect.

SMILES | Potency
C/C=C1/CC(C)C(C)(O)C(=O)OCC2CCN3CCC(OC1=O)C23 (stereo unspecified) | inactive
COc1ccc(CCNC(=O)c2cnc3sc(N4CCCCCC4)nn3c2=O)cc1 | inconclusive: 18.4 µM [falling, single point]
O=c1[nH]c(=O)n(C2CCCCCC2)c(O)c1C=NCc1ccc(F)cc1 | inconclusive: 5.8 µM [falling, partial curve, poor fit]
COc1cc([C@@H]2c3cc4c(cc3[C@H](OC(C)=O)[C@H]3COC(=O)[C@H]23)OCO4)cc(OC)c1OC | inconclusive: 0.184 µM [activator, full curve, poor fit]
Cc1ccc(S(=O)(=O)N2CCCCC2)cc1NC(=O)CN1CC=C(c2ccccc2)CC1 | inconclusive: 32.6 µM [falling, single point]
COC(=O)C(=O)N1CC2(C)CNCC(C)(C1)C2=O | inconclusive: 29.1 µM [activator, single point]
CCOC(=O)c1c(C)c(P(=S)(N2CCOCC2)N2CCOCC2)n(C)c1C | inactive
c1ccc(C(CN2CCCCC2)c2ccccc2)cc1 | inactive
CCOC(=O)C1(c2ccccc2)CCN(CC(O)c2ccc(NC(C)=O)cc2)CC1 (stereo unspecified) | inconclusive: 14.6 µM [activator, partial curve, poor fit]
CCC1(CC)C(=O)NC(=Nc2cccc(C(F)(F)F)c2)NC1=O | inconclusive: 25.9 µM [falling, partial curve, poor fit]
CC(=NCc1ccco1)c1c(O)n(-c2ccccc2)c(=O)[nH]c1=O | inconclusive: 23.1 µM [falling, partial curve, poor fit]
O=C(O)CC/C(=C\c1cc([N+](=O)[O-])ccc1Cl)c1nc2ccccc2s1 | inconclusive: 32.6 µM [falling, partial curve, poor fit]
O=C1NC(=S)NC(=O)C1=Cc1cccc2cc3ccccc3cc12 | inconclusive: 25.9 µM [falling, single point]
CC/C(=N\Nc1ccccc1)c1c(O)n(C)c(=O)n(C)c1=O | inconclusive: 23.1 µM [falling, partial curve, poor fit]
COC(=O)C1=C(c2cccc(OCc3ccccc3)c2)C[C@@H]2CC[C@H]1N2C(=O)NCc1cccc(OC)c1 | inconclusive: 20.6 µM [falling, single point]
CN(C)P1(N(C)C)=Nc2c(c(N)nn2C)C(c2ccccc2)=N1 | inconclusive: 5.8 µM [activator, full curve]
COc1ccc(/C=C2/C(=O)NC(=O)N(c3ccccc3)C2=O)cc1CN1C(=O)c2ccccc2C1=O | inactive
CCN(CC)c1ccc(/C=C2\C(=O)NC(=O)N(Cc3ccco3)C2=O)cc1 | inactive
O=C1c2ccccc2C(=O)N1Cc1nc2ccccc2c(=O)n1-c1ccc(Br)cn1 | inconclusive: 16.4 µM [activator, single point]
CN(C)Cc1c[nH]c2ccccc12 | inconclusive: 6.51 µM [falling, single point]
CCOC(C[n+]1c(-c2ccccc2)cc(C)cc1-c1ccccc1)OCC | inconclusive: 20.6 µM [falling, partial curve]

SMILES | Potency
COc1ccc(-c2nc(CN3C(=O)CN=C(c4ccccc4)c4ccccc43)c(C)o2)cc1 | inactive
Cc1ccc(CN2C(=O)NC(=O)C3(Cc4c(nc5ccccn5c4=O)N4CCCCCC43)C2=O)cc1 (stereo unspecified) | inconclusive: 18.4 µM [falling, single point]
CC1Cc2ccccc2N1Cc1cccc(S(=O)(=O)N(C)C)c1 (stereo unspecified) | inconclusive: 29.1 µM [falling, single point]
COc1ccc(C(=O)Nc2ccccc2-c2nnn(CC(=O)Nc3ccc4c(c3)OCCO4)n2)cc1 | inconclusive: 2.06 µM [falling, partial curve]
Cc1ccc(-c2cc(NC(=O)c3ccccc3)on2)cc1 | inconclusive: 5.17 µM [activator, single point]
COc1cc(OC)c(/C=C2\C(=O)Nc3ccccc32)c(OC)c1 | inconclusive: 23.1 µM [falling, single point]
COC(=O)C1=C(c2ccc3ccccc3c2)C[C@@H]2CC[C@H]1N2C(=O)NCCO | inactive
COc1ccc(NC(=O)CN(C)C(=O)CSC(c2ccccc2)c2ccccc2)cc1 | inconclusive: 20.6 µM [falling, single point]
Cc1cc(C)cc(N2C(=O)NC(=O)/C(=C\c3cccn3-c3ccccc3)C2=O)c1 | inconclusive: 23.1 µM [activator, single point]
O=C(c1ccco1)N1CCN(C(=O)c2ccc(COc3ccc(Cl)cc3Cl)o2)CC1 | active: 25.9 µM
CCOc1ccc(CCNC(=O)c2cc3c(-c4ccc(OC)c(OC)c4)nn(C)c3s2)cc1OCC | active: 13 µM
C=CC[C@H](CC(=O)N(CCO)Cc1ccccc1)C(=O)NC[C@H](OC(=O)[C@@H](CC=C)CC(=O)OC(C)(C)C)c1ccccc1 | active: 18.4 µM
Cc1nn(Cc2ccccc2)c(C)c1C=C1C(=O)NC(=O)NC1=O | inactive
COc1ccc(OCC(=O)Nc2ccc(Cl)cc2C(=O)c2ccccc2)cc1 | inconclusive: 5.8 µM [falling, partial curve, poor fit]
Cc1cccc(C2=NCC(=O)N(CC(=O)NCc3ccco3)c3sc4c(c32)CCCC4)c1 | inconclusive: 16.4 µM [falling, single point]
CCOc1ccc(N2C(=O)/C(=C/c3ccco3)C(=O)NC2=S)cc1 | inactive
COC(=O)C1=C(c2ccc(OCc3ccccc3)cc2)C[C@@H]2CC[C@H]1N2C(=O)NCc1cccc(OC)c1 | active: 23.1 µM
NNCc1ccccc1 | inconclusive: 14.6 µM [activator, partial curve]
Cc1ccc2nc(N3CCC(C(=O)N4CCC5(CC4)OCCO5)CC3)sc2c1 | inconclusive: 4.61 µM [activator, single point]
C[C@]12CC[C@H]3[C@@H](CCC4=CC(=O)CC[C@@]43O)[C@@H]1CCC2=O | inconclusive: 6.51 µM [activator, single point]

Part of the list above, as a markdown table.

| SMILES | Potency |
| --- | --- |
| COc1ccc(-c2nc(CN3C(=O)CN=C(c4ccccc4)c4ccccc43)c(C)o2)cc1 | inactive |
| Cc1ccc(CN2C(=O)NC(=O)C3(Cc4c(nc5ccccn5c4=O)N4CCCCCC43)C2=O)cc1 (stereo unspecified) | inconclusive: 18.4 µM [falling, single point] |
